Measurements published in patent publication US20240334941A1, “HIGH-EFFICACY NATURAL PRESERVATIVES” (BioVeritas, LLC, priority 2023, published 2024).

Columns and labels:
[1] = Descriptive sensory analysis of breads by trained panel (Example 5); details: 0.5% on flour; for crumb cell size (small to large) / crumb cell uniformity / crumb color (light to dark) / crust color (light to dark) / hand crumb springiness / hand side crust springiness / porosity: appearance and hand texture; for crumb adhesiveness to palate / crumb chewiness / crumb cohes. Of mass @ 4 to 7 chews / crumb hardness / crumb moistness / crumb tooth - packing / top crust chewiness: oral texture
[2] = Loaf weight, volume and bake score (Example 6); details: for Specific Volume / Weight: loaf out of the oven
[3] = crumb flavor, day 1, 0-15 scale
[4] = crumb flavor, day 7, 0-15 scale
[5] = crust flavor, day 1, 0-15 scale
[6] = crust flavor, day 7, 0-15 scale

In the case of `CCC(=O)[O-].CCC(=O)[O-].[Ca+2]` [CCP, calcium propionate], the “crumb cell size (small to large)” value ([1]; day 1, 0-15 scale) was 6.9f, the crumb cell uniformity ([1]; day 1, 0-15 scale) was 9.4b and the “crumb color (light to dark)” value ([1]; day 1, 0-15 scale) was 3.0a. The “crust color (light to dark)” value ([1]; day 1, 0-15 scale) was 10.5cd, the hand crumb springiness ([1]; day 1, 0-15 scale) was 12.3ab and the “hand side crust springiness” value ([1]; day 1, 0-15 scale) was 14.1a. The porosity ([1]; day 1, 0-15 scale) was 11.7a, the “crumb cell size (small to large)” value ([1]; day 7, 0-15 scale) was 6.7f and the crumb cell uniformity ([1]; day 7, 0-15 scale) was 10.1a. For the same molecule, the “crumb color (light to dark)” value ([1]; day 7, 0-15 scale) was 3.0a, the “crust color (light to dark)” value ([1]; day 7, 0-15 scale) was 10.4 days and the hand crumb springiness ([1]; day 7, 0-15 scale) was 12.4ab. The “hand side crust springiness” value ([1]; day 7, 0-15 scale) was 12.6b, the porosity ([1]; day 7, 0-15 scale) was 11.0b and the aft int. [1, 3] was 2.1a. It also gave an astr mf [1, 3] of 1.8a, a salty [1, 3] of 3.1a and a sour [1, 3] of 0.6c. For the same molecule, the sour aromatic [1, 3] was 1.6a, the sweet [1, 3] was 3.1a and the umami [1, 3] was 2.9a. It also gave a white flour paste [1, 3] of 1.2b, a yeasty/ fermented [1, 3] of 2.1b and an aft int. [1, 4] of 2.1a. The astr mf [1, 4] was 1.7a, the salty [1, 4] was 3.1a and the sour [1, 4] was 0.6c. The sour aromatic [1, 4] was 0.5c, the sweet [1, 4] was 3.1a and the umami [1, 4] was 2.8a. The white flour paste [1, 4] was 1.4a, the yeasty/ fermented [1, 4] was 2.0b and the aft int. [1, 5] was 2.1a. The astr mf [1, 5] was 2.0b, the bitter [1, 5] was 1.0a and the burned/ tstd [1, 5] was 1.4c. For the same molecule, the salty [1, 5] was 3.0a, the sour [1, 5] was 1.9bc and the sour aromatic [1, 5] was 1.1 days. The sweet [1, 5] was 2.6b, the umami [1, 5] was 2.5bc and the white flour paste [1, 5] was 1.1a. For the same molecule, the aft int. [1, 6] was 2.0a, the astr mf [1, 6] was 2.0b and the bitter [1, 6] was 0.9a. The burned/ tstd [1, 6] was 1.2 days, the salty [1, 6] was 3.0a and the sour [1, 6] was 1.9bc. For the same molecule, the sour aromatic [1, 6] was 1.3cd, the sweet [1, 6] was 2.5b and the umami [1, 6] was 2.5bc. For the same molecule, the white flour paste [1, 6] was 1.1a, the “crumb adhesiveness to palate” value ([1]; day 1, 0-15 scale) was 4.4c and the crumb chewiness ([1]; day 1, 0-15 scale) was 10.8b. The “crumb cohes. Of mass @ 4 to 7 chews” value ([1]; day 1, 0-15 scale) was 13.1a, the crumb hardness ([1]; day 1, 0-15 scale) was 4.2c and the crumb moistness ([1]; day 1, 0-15 scale) was 11.4b. For the same molecule, the “crumb tooth - packing” value ([1]; day 1, 0-15 scale) was 4.9c, the top crust chewiness ([1]; day 1, 0-15 scale) was 10.1b and the “crumb adhesiveness to palate” value ([1]; day 7, 0-15 scale) was 5.4a. The crumb chewiness ([1]; day 7, 0-15 scale) was 10.9b, the “crumb cohes. Of mass @ 4 to 7 chews” value ([1]; day 7, 0-15 scale) was 12.5b and the crumb hardness ([1]; day 7, 0-15 scale) was 4.8b. The crumb moistness ([1]; day 7, 0-15 scale) was 7.9e, the “crumb tooth - packing” value ([1]; day 7, 0-15 scale) was 5.7b and the top crust chewiness ([1]; day 7, 0-15 scale) was 9.7c. The “bake score: Aroma (10)” value ([2]; 0.5 wt. %) was 10, the “bake score: Crumb Color (10)” value ([2]; 0.5 wt. %) was 6 and the “bake score: Crust (10)” value ([2]; 0.5 wt. %) was 8. For the same molecule, the “bake score: Grain (20)” value ([2]; 0.5 wt. %) was 15, the “bake score: Symmetry (10)” value ([2]; 0.5 wt. %) was 8 and the “bake score: Taste (10)” value ([2]; 0.5 wt. %) was 10. For the same molecule, the “bake score: Texture (20)” value ([2]; 0.5 wt. %) was 16, the “bake score: Total Score (100)” value ([2]; 0.5 wt. %) was 80 and the “bake score: Uniformity (10)” value ([2]; 0.5 wt. %) was 7. The “bake score: Aroma (10)” value ([2]; 0.8 wt. %) was 10, the “bake score: Crumb Color (10)” value ([2]; 0.8 wt. %) was 6 and the “bake score: Crust (10)” value ([2]; 0.8 wt. %) was 7. For the same molecule, the “bake score: Grain (20)” value ([2]; 0.8 wt. %) was 17, the “bake score: Symmetry (10)” value ([2]; 0.8 wt. %) was 8 and the “bake score: Taste (10)” value ([2]; 0.8 wt. %) was 10. For the same molecule, the “bake score: Texture (20)” value ([2]; 0.8 wt. %) was 16, the “bake score: Total Score (100)” value ([2]; 0.8 wt. %) was 82 and the “bake score: Uniformity (10)” value ([2]; 0.8 wt. %) was 8. The “Specific Volume” value ([2]; 0.5 wt. %) was 5.313 cc/g, the Weight ([2]; 0.5 wt. %) was 150 g and the “Specific Volume” value ([2]; 0.8 wt. %) was 5.603 cc/g. The Weight ([2]; 0.8 wt. %) was 146 g.
